Results reported in paper PMC12263440.
No constants are given. Whether binding was seen depends on the method and setting. Some entries that bind do so weakly or less than the wild type.

By UniProt entry, the sequences of proteins in these tests, tags left out. Where a name states a change or a piece, a line headed by the entry shows the natural chain unless it says otherwise.
UniProt Q15910: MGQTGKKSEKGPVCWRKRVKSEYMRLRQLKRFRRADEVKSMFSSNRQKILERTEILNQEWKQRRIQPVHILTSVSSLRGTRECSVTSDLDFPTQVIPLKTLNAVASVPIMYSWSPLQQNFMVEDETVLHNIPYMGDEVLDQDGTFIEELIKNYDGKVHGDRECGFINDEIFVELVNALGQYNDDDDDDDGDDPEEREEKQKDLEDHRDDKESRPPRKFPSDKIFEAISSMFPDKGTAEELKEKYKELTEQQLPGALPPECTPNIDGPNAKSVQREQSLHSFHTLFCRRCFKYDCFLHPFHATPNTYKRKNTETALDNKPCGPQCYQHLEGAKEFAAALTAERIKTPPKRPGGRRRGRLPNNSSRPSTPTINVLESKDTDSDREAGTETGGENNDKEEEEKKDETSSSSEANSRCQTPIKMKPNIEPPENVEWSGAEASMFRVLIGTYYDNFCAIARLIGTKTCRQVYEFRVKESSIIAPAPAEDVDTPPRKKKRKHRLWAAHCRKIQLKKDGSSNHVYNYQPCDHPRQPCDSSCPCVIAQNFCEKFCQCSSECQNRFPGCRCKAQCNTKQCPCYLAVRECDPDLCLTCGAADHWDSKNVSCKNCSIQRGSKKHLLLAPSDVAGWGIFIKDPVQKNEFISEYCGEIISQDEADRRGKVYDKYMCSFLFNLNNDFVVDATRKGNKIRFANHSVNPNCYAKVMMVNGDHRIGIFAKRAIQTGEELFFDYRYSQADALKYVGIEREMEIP
UniProt Q15022: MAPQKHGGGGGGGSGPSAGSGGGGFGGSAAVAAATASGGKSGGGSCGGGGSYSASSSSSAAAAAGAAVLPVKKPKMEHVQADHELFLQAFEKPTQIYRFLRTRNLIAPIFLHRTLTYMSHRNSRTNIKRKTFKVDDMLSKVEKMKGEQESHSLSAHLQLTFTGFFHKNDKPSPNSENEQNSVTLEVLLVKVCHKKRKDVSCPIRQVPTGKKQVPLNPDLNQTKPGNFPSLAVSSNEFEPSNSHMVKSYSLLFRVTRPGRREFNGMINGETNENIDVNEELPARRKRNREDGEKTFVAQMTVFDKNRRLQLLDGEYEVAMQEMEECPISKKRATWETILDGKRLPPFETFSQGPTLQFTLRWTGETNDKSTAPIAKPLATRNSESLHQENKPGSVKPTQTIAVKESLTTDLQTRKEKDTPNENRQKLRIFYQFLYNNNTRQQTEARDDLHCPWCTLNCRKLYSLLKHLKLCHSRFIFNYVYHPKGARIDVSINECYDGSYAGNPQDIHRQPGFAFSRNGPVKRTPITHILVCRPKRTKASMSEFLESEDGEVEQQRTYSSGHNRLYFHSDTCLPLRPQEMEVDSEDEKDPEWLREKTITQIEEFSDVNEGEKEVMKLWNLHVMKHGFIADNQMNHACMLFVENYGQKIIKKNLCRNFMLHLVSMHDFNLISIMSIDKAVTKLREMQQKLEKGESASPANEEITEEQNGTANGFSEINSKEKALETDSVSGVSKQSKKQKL
UniProt O75530: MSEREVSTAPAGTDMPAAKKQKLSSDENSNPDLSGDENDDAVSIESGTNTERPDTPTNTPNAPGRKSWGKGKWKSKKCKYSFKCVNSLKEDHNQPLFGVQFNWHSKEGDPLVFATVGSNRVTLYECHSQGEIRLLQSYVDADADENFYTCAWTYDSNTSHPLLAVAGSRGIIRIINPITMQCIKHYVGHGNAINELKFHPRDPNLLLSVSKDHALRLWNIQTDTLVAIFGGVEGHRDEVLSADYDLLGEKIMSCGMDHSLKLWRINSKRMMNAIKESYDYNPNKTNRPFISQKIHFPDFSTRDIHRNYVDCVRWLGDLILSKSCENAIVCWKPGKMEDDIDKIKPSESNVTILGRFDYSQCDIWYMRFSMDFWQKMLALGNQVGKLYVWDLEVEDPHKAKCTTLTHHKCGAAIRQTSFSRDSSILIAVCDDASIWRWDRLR
UniProt Q09028: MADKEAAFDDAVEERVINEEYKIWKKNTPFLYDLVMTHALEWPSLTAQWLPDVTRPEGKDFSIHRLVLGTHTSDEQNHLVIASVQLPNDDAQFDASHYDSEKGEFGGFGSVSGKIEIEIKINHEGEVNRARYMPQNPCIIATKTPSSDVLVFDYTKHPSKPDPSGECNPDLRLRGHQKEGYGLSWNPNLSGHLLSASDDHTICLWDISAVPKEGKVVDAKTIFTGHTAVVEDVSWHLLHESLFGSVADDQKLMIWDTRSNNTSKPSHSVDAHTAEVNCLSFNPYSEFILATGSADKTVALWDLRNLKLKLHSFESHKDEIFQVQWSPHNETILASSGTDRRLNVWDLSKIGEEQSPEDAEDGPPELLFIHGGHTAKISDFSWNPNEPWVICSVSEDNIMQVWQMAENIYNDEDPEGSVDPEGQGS

T1: recombinant human DEK protein (wild type) (human), P35659
T1 chain: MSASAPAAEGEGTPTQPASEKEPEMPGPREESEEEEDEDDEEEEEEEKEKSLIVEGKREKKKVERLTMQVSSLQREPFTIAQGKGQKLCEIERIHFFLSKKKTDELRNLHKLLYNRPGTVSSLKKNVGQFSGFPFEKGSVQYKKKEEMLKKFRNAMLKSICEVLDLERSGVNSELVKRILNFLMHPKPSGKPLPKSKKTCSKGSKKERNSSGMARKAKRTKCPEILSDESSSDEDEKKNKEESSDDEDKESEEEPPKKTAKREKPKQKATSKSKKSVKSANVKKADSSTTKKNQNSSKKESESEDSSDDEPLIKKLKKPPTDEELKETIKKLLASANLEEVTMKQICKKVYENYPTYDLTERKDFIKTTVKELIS


Experiments:
[1] = target: His6-tagged PRC2 complex (EZH2, SUZ12, EED, RBBP4) (human) (UniProt Q15910+Q15022+O75530+Q09028); assay: pull-down; DEK (1 µM) mixed with His–PRC2 complex (0.5 µM), Ni-NTA resin, 150 mM NaCl, 0.1% NP-40, 20 mM imidazole, 4 °C, 1 h; SDS–PAGE with Oriole stain; both purified
[2] = target: T1, recombinant human DEK protein (wild …); assay: cryo-EM structure; 193-bp 601L nucleosome (1.5 µM) and DEK (3.0 µM), 20 mM Tris-HCl pH 7.5, 122 mM NaCl, 37 °C, 30 min; gradient fixation with paraformaldehyde; both purified; conditions: remark: other sources report otherwise

Molecule | binding [1] | binding [2]
recombinant human DEK protein (wild type) (from UniProt P35659 1-375) | no binding (tested: DEK 1 µM, His–PRC2 complex 0.5 µM) | 
recombinant human DEK protein (wild type), P35659 1-375 (protein) MSASAPAAEGEGTPTQPASEKEPEMPGPREESEEEEDEDDEEEEEEEKEKSLIVEGKREKKKVERLTMQVSSLQREPFTIAQGKGQKLCEIERIHFFLSKKKTDELRNLHKLLYNRPGTVSSLKKNVGQFSGFPFEKGSVQYKKKEEMLKKFRNAMLKSICEVLDLERSGVNSELVKRILNFLMHPKPSGKPLPKSKKTCSKGSKKERNSSGMARKAKRTKCPEILSDESSSDEDEKKNKEESSDDEDKESEEEPPKKTAKREKPKQKATSKSKKSVKSANVKKADSSTTKKNQNSSKKESESEDSSDDEPLIKKLKKPPTDEELKETIKKLLASANLEEVTMKQICKKVYENYPTYDLTERKDFIKTTVKELIS |  | binds
